Data as given in patent publication US10081665B2, “Peptides and combination of peptides for use in immunotherapy against various tumors” (immatics biotechnologies GmbH, priority 2015, dated 2018).
For part of these data: Expression values are those of the mRNA of the gene that encodes the peptide; a gene is named only where it was looked up.

Key:
[1] = test system: source genes of the peptides (mRNA); experiment: Expression profiling of source genes by Affymetrix microarrays (target coverage); parameters: species or system human; conditions: share of BPH/PCA samples with >1.5-fold over-expression vs highest-expressing relevant normal tissue; 20 prostate cancer samples
[2] = test system: cancer tissues compared to normal tissues; experiment: Identification and label-free relative LC-MS quantitation of HLA-presented tumor associated peptides (presentation profiles); parameters: species or system human; conditions: for cancer tissues where the peptide was found to be presented / normal tissues where the peptide was found to be presented / cell lines where the peptide was found to be presented: FIG. 1E-J; for cancer tissues where the peptide was found to be presented / normal tissues where the peptide was found to be presented: 7A-C, more than 320 normal tissue samples and 462 cancer samples analysed; for cancer tissue samples where the peptide was found to be presented / normal tissue samples where the peptide was found to be presented: FIG. 1A-D, more than 170 normal tissue samples and 376 cancer samples analysed

| Substance | Target coverage for source gene, BPH/PCA (%) [1] | further results |
| --- | --- | --- |
| 48: peptide found in CHEK1 (gene looked up) (KISDFGLATV; listed as Homo sapiens) [compound 48] | I (<19% over-expression = I) | – |
| 93: peptide found in AURKA (gene looked up) (RLYGYFHDA; listed as Homo sapiens) [compound 93] | I (<19% over-expression = I) | – |
| SEQ ID NO.: 43: peptide found in CCR8 (gene looked up) (LLIPFTIFM; listed as Homo sapiens) | – | cancer tissues where the peptide was found to be presented [2]: 16 samples |
| 120: peptide found in RRM2 (gene looked up) (LQLSPLKGLSL; listed as Homo sapiens) [compound 120] | I (<19% over-expression = I) | – |
| SEQ ID NO.: 156: peptide found in CYSLTR1 (gene looked up) (VILTSSPFL; listed as Homo sapiens) | – | cancer tissues where the peptide was found to be presented [2]: 11 samples; normal tissues where the peptide was found to be presented [2]: 3 samples |
| 239: peptide found in KIF11 (gene looked up) (VIIKGLEEITV; listed as Homo sapiens) [compound 239] | I (<19% over-expression = I) | – |
| 247: peptide found in CDK1 (gene looked up) (NLLIDDKGTIKL; listed as Homo sapiens) [compound 247] | I (<19% over-expression = I) | – |
| 1: peptide found in CENPE (gene looked up) (KLQEKIQEL; listed as Homo sapiens) [compound 1] | I (<19% over-expression = I) | – |
| 52: peptide found in BRIP1 (gene looked up) (TIGIPFPNV; listed as Homo sapiens) [compound 52] | I (<19% over-expression = I) | – |
| 249: peptide found in CDK1 (gene looked up) (YLYQILQGI; listed as Homo sapiens) [compound 249] | I (<19% over-expression = I) | – |
| 37: peptide found in KIF11 (gene looked up) (QIVELIEKI; listed as Homo sapiens) [compound 37] | I (<19% over-expression = I) | – |
| SEQ ID NO.: 1: peptide found in CENPE (gene looked up) (KLQEKIQEL; listed as Homo sapiens) | – | cancer tissue samples where the peptide was found to be presented [2]: 31 samples; normal tissue samples where the peptide was found to be presented [2]: 2 samples |
| SEQ ID NO.: 10: peptide found in KIF15 (gene looked up) (QLIEKNWLL; listed as Homo sapiens) | – | cancer tissue samples where the peptide was found to be presented [2]: 29 samples; normal tissue samples where the peptide was found to be presented [2]: 1 samples |
| 252: peptide found in KIF4A (gene looked up) (SLMEKNQSL; listed as Homo sapiens) [compound 252] | I (<19% over-expression = I) | – |
| 35: peptide found in KIF11 (gene looked up) (VIIKGLEEI; listed as Homo sapiens) [compound 35] | I (<19% over-expression = I) | – |
| SEQ ID NO.: 84 (FLLEREQLL; listed as Homo sapiens) | – | cell lines where the peptide was found to be presented [2]: 3 cell lines; cancer tissues where the peptide was found to be presented [2]: 24 samples |
| 36: peptide found in KIF11 (gene looked up) (TVLQELINV; listed as Homo sapiens) [compound 36] | I (<19% over-expression = I) | – |
| 240: peptide found in KIF11 (gene looked up) (SVQENIQQK; listed as Homo sapiens) [compound 240] | I (<19% over-expression = I) | – |
| 90: peptide found in HTR3A (gene looked up) (AILNVDEKNQV; listed as Homo sapiens) [compound 90] | I (<19% over-expression = I) | – |
| 111: peptide found in HMMR (gene looked up) (AQLEGKLVSI; listed as Homo sapiens) [compound 111] | I (<19% over-expression = I) | – |
| 121: peptide found in TRIP13 (gene looked up) (ALYVQAPTV; listed as Homo sapiens) [compound 121] | I (<19% over-expression = I) | – |
| 114: peptide found in NCAPH (gene looked up) (LLFPSDVQTL; listed as Homo sapiens) [compound 114] | I (<19% over-expression = I) | – |
| 122: peptide found in TRIP13 (gene looked up) (SIIDTELKV; listed as Homo sapiens) [compound 122] | I (<19% over-expression = I) | – |
| SEQ ID NO.: 235: peptide found in CLSPN (gene looked up) (SLLNQPKAV; listed as Homo sapiens) | – | cell lines where the peptide was found to be presented [2]: 13 cell lines; cancer tissues where the peptide was found to be presented [2]: 30 samples |

| Substance | Target coverage for source gene, BPH/PCA (%) [1] | further results |
| --- | --- | --- |
| 70: peptide found in KIF4A (gene looked up) (GLTEKTVLV; listed as Homo sapiens) [compound 70] | I (<19% over-expression = I) | – |
| 285: peptide found in NCAPG2 (gene looked up) (MLLDTVQKV; listed as Homo sapiens) [compound 285] | I (<19% over-expression = I) | – |
| SEQ ID NO.: 67 (FLIENLLAA; listed as Homo sapiens) | – | cancer tissues where the peptide was found to be presented [2]: 7 samples |
| SEQ ID NO.: 152: peptide found in CXCR5 (gene looked up) (ILVTSIFFL; listed as Homo sapiens) | – | cancer tissues where the peptide was found to be presented [2]: 16 samples; normal tissues where the peptide was found to be presented [2]: 6 samples |
| 39: peptide found in PRIM2 (gene looked up) (YLEDGFAYV; listed as Homo sapiens) [compound 39] | IV (>70% = IV) | – |
| 242: peptide found in CENPE (gene looked up) (KLQEEIPVL; listed as Homo sapiens) [compound 242] | I (<19% over-expression = I) | – |
| 248: peptide found in CDK1 (gene looked up) (VLMQDSRLYL; listed as Homo sapiens) [compound 248] | I (<19% over-expression = I) | – |
| 271: peptide found in FANCI (gene looked up) (VLIEYNFSI; listed as Homo sapiens) [compound 271] | I (<19% over-expression = I) | – |
| 234: peptide found in NCAPG (gene looked up) (VLLNEILEQV; listed as Homo sapiens) [compound 234] | I (<19% over-expression = I) | – |
| 104: peptide found in KLK3 (gene looked up) (DLPTQEPALGTT; listed as Homo sapiens) [compound 104] | IV (>70% = IV) | – |
| 277: peptide found in HMMR (gene looked up) (KLQEELNKV; listed as Homo sapiens) [compound 277] | I (<19% over-expression = I) | – |
| 268: peptide found in TOP2A (gene looked up) (SLDKDIVAL; listed as Homo sapiens) [compound 268] | I (<19% over-expression = I) | – |
| 41: peptide found in NCAPG (gene looked up) (IVTEIISEI; listed as Homo sapiens) [compound 41] | I (<19% over-expression = I) | – |
| 94: peptide found in ACKR2 (gene looked up) (YLDEVAFML; listed as Homo sapiens) [compound 94] | I (<19% over-expression = I) | – |
| 112: peptide found in KIF4A (gene looked up) (ILAQDVAQL; listed as Homo sapiens) [compound 112] | I (<19% over-expression = I) | – |
| 250: peptide found in CDK1 (gene looked up) (LMQDSRLYL; listed as Homo sapiens) [compound 250] | I (<19% over-expression = I) | – |
| 79: peptide found in CCNB2 (gene looked up) (TVLEEIGNRV; listed as Homo sapiens) [compound 79] | I (<19% over-expression = I) | – |
| 270: peptide found in FANCI (gene looked up) (TLLTFFHEL; listed as Homo sapiens) [compound 270] | I (<19% over-expression = I) | – |
| 58: peptide found in BUB1 (gene looked up) (HLLGEGAFAQV; listed as Homo sapiens) [compound 58] | I (<19% over-expression = I) | – |
| 267: peptide found in TOP2A (gene looked up) (YLLDMPLWYL; listed as Homo sapiens) [compound 267] | I (<19% over-expression = I) | – |
| 287: peptide found in IGF2BP3 (gene looked up) (KIQEILTQV; listed as Homo sapiens) [compound 287] | I (<19% over-expression = I) | – |
| 33: peptide found in MUC16 (gene looked up) (TLDRNSLYV; listed as Homo sapiens) [compound 33] | II (20-49% = II) | – |
| 10: peptide found in KIF15 (gene looked up) (QLIEKNWLL; listed as Homo sapiens) [compound 10] | I (<19% over-expression = I) | – |
| 42: peptide found in NCAPG (gene looked up) (KQMSISTGL; listed as Homo sapiens) [compound 42] | I (<19% over-expression = I) | – |
